Measured values from the supplement of paper PMC12819154, “High-throughput peptide-centric local stability assay extends protein–ligand identification to membrane proteins, tissues and bacteria” (Nature Structural & Molecular Biology, 2025).
Some of the results follow. Most entries show no effect beyond the scatter of the controls.

Protein sequences, listed by entry. Tags and fused reporters are not part of them. Lines headed by an entry give the natural chain unless they say otherwise; changes in a name come on top.
UniProt Q9QXY1: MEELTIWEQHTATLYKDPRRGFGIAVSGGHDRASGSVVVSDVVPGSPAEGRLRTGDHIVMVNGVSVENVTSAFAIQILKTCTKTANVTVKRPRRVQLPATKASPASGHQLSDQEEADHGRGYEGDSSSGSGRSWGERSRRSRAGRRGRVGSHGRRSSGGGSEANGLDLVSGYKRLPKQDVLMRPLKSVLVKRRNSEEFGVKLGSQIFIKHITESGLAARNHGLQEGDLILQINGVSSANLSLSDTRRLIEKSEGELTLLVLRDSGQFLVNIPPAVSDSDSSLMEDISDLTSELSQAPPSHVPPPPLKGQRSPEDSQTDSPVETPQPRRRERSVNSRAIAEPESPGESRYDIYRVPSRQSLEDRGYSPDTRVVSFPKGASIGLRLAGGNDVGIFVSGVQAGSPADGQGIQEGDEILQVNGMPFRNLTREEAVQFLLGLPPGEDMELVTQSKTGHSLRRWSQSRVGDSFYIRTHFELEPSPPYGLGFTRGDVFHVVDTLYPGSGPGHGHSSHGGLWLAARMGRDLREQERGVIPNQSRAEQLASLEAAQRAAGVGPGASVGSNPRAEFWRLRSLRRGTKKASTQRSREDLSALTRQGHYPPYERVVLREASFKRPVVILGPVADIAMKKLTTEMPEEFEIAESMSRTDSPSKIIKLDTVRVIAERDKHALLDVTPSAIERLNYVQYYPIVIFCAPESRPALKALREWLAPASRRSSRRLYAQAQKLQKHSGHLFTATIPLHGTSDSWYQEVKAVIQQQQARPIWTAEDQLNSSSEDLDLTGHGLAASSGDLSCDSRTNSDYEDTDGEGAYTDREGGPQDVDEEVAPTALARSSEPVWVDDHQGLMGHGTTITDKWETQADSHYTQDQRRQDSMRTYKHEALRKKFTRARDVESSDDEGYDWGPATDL
UniProt Q9R1L5: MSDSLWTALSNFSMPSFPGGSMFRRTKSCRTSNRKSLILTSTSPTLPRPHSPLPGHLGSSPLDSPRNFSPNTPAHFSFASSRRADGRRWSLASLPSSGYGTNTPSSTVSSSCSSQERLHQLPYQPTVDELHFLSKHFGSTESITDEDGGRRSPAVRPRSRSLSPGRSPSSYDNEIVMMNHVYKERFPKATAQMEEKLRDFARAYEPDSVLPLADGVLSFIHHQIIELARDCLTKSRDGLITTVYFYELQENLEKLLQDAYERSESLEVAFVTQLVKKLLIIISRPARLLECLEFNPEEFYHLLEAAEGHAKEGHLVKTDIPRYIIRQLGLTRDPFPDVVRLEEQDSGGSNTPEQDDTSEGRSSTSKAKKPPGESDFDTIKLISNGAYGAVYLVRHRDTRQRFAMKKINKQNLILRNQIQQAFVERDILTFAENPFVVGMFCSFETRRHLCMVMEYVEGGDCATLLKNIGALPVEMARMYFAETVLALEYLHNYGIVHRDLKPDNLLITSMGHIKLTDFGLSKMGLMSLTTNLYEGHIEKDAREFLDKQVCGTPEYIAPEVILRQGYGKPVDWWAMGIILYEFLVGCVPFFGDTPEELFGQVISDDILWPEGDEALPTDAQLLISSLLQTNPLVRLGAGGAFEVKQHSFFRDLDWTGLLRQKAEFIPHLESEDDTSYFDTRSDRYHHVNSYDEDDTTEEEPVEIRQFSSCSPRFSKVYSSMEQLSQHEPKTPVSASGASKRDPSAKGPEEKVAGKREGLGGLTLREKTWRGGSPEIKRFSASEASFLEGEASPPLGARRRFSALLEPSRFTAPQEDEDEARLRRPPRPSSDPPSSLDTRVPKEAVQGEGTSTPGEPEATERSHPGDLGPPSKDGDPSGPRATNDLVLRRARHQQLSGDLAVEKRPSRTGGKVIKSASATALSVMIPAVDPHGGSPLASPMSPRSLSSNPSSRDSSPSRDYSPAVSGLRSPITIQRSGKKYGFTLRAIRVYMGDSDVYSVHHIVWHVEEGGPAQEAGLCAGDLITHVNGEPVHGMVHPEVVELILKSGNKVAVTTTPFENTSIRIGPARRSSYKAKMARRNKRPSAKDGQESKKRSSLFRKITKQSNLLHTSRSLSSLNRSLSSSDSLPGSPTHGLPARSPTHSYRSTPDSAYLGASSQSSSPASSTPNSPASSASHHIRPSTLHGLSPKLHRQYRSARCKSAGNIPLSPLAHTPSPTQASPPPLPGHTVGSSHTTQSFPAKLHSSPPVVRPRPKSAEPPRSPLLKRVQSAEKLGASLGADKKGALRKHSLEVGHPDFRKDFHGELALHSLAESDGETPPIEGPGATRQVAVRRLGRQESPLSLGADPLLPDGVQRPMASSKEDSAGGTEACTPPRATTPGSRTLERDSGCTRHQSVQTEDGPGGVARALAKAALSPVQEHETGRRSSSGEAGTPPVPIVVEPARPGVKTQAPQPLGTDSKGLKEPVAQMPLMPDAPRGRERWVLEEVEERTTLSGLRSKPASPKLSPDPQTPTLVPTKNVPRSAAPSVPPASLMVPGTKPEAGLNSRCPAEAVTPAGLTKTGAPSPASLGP
UniProt Q9QZK2: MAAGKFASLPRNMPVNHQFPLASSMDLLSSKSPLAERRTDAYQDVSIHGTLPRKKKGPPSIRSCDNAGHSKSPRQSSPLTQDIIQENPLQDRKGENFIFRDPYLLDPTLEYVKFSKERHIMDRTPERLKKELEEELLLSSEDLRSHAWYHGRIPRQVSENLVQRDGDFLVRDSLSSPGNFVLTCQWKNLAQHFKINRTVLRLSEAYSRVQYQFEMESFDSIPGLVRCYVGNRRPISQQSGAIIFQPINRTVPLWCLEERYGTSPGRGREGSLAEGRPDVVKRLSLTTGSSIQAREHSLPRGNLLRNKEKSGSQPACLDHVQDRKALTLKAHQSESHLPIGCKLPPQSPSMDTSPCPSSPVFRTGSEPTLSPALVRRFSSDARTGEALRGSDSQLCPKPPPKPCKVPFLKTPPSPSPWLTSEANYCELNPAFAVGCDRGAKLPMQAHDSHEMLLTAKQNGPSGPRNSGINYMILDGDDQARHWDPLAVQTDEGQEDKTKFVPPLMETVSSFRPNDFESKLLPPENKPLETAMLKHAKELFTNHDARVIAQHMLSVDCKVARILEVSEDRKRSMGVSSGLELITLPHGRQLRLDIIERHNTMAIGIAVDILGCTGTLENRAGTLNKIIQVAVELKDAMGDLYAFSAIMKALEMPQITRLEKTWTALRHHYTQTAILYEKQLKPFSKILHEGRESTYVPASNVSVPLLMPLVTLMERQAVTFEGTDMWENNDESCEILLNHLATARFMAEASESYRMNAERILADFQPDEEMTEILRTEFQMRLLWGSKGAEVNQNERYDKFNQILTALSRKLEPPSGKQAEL
UniProt Q9QYR7: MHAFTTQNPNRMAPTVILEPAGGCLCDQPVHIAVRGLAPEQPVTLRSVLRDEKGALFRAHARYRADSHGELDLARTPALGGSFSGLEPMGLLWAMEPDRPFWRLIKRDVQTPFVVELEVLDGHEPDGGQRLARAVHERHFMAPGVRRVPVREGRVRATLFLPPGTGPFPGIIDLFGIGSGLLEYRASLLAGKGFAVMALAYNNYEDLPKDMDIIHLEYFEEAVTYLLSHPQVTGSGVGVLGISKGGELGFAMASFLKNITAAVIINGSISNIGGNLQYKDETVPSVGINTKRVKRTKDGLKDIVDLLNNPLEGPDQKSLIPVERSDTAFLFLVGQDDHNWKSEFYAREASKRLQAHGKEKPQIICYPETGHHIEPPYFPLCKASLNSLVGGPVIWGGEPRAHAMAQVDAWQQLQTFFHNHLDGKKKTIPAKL
UniProt Q9R0P6: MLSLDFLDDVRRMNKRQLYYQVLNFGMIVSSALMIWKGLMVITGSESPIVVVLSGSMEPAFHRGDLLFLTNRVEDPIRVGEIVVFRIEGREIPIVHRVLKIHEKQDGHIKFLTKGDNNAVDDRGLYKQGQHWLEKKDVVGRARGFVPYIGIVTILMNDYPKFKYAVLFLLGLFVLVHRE
UniProt Q9R087: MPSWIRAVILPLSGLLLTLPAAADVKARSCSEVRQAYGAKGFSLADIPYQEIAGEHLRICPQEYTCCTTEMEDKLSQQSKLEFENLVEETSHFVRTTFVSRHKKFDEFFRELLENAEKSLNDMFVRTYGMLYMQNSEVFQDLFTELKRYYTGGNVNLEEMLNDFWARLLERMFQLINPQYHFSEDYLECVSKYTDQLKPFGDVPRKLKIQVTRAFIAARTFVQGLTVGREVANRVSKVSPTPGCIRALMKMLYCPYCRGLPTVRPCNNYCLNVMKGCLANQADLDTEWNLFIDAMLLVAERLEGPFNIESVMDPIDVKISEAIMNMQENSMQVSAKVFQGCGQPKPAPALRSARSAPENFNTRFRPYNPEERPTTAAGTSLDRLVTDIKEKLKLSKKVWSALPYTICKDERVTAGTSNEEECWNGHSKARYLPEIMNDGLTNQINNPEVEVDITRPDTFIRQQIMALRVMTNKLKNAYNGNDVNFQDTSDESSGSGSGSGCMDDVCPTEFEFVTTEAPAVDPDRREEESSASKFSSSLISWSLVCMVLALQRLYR
UniProt Q9WUB4, whole entry: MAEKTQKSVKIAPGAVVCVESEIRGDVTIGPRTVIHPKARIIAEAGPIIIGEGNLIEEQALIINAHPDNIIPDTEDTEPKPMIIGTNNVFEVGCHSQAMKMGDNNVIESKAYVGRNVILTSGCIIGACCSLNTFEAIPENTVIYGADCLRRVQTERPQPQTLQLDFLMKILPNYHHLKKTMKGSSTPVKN
UniProt Q9R0M8: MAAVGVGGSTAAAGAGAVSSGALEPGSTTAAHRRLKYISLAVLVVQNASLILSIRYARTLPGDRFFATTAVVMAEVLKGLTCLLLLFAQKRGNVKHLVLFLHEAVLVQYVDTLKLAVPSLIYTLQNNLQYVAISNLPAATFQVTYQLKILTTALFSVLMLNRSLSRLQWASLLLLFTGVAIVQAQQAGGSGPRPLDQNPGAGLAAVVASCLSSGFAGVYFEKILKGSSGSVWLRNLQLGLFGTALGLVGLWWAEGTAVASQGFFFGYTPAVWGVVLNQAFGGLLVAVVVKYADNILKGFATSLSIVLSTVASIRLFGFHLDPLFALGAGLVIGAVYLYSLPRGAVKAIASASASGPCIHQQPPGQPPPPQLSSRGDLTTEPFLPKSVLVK
UniProt Q9WV98: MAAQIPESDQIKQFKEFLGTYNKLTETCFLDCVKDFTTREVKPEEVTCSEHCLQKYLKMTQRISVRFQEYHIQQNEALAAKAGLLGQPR
UniProt Q9QXE2: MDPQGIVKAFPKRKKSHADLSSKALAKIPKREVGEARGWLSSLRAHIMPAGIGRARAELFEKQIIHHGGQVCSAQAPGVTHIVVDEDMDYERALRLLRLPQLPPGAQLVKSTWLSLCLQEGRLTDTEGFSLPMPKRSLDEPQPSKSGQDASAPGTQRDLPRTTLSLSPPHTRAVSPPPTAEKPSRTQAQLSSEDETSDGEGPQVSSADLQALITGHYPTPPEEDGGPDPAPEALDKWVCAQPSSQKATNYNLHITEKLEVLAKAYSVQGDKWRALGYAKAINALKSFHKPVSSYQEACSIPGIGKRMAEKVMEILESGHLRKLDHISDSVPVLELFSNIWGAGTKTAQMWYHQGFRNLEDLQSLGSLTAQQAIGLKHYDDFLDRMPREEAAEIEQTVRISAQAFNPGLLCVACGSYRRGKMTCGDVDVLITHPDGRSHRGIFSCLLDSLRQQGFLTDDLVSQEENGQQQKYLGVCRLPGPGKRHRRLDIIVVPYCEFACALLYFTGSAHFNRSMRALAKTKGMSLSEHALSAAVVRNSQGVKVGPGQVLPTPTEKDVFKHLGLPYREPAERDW
UniProt Q9R1V7: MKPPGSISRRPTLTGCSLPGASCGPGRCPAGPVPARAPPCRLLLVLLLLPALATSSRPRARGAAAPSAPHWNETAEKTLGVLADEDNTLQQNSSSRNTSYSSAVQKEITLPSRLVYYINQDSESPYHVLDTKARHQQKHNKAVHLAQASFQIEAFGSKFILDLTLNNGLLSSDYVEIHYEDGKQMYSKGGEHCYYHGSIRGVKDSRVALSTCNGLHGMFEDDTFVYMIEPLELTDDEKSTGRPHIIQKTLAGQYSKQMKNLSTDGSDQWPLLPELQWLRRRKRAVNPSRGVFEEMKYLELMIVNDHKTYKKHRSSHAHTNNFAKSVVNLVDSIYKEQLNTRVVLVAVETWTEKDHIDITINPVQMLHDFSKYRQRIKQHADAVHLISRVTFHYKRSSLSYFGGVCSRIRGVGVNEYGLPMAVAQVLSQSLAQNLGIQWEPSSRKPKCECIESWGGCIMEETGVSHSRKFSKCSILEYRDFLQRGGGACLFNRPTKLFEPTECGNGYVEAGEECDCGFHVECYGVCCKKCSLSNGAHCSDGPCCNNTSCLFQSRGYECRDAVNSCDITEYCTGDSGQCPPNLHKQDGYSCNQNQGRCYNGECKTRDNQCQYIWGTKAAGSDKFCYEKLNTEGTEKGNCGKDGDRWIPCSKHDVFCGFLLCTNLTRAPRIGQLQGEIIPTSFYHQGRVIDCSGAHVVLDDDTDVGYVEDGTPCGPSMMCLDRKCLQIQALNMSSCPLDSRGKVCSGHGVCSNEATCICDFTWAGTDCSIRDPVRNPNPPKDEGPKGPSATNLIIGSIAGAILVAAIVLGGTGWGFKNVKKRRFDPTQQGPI

compound: CN[C@@H]1C[C@H]2O[C@@](C)([C@@H]1OC)n1c3ccccc3c3c4c(c5c6ccccc6n2c5c31)C(=O)NC4 [staurosporine]; test: log2 fold change of tryptic peptide abundance, ligand vs vehicle (limited proteolysis) (log2 ratio); higher = more trypsin-susceptible (destabilized); details: ligand concentration: 20 uM; sample: mouse liver crude lysate; replicate design: treated separately

Target | log2 fold change
UniProt Q9QXY1 (peptide sequence: AIAEPESPGESR, peptide start residue: 337) | 0.112
UniProt Q9R1L5 (peptide sequence: TQAPQPLGTDSK, peptide start residue: 1448) | 0.0768
UniProt Q9WV95 (peptide sequence: AVECVESTGR, peptide start residue: 58) | -0.565
UniProt Q9QY73 (peptide sequence: VNLAHSEI, peptide start residue: 316) | 0.123
UniProt Q9WV68 (peptide sequence: VNSLAPGAISGTEGLRR, peptide start residue: 203) | -0.142
UniProt Q9WV02 (peptide sequence: IVEVLLMKDR, peptide start residue: 34) | 0.351
UniProt Q9QZK2 (peptide sequence: HHYTQTAILYEK, peptide start residue: 666) | -0.282
UniProt Q9QYR7 (peptide sequence: MHAFTTQNPNR, peptide start residue: 1) | 0.0986
UniProt Q9QZJ6 (peptide sequence: LVCKEHEAMKDELCR, peptide start residue: 118) | 0.345
UniProt Q9WU84 (peptide sequence: LACGIIAR, peptide start residue: 225) | -0.198
UniProt Q9R0P6 (peptide sequence: EIPIVHR, peptide start residue: 91) | 0.149
UniProt Q9QXL2 (peptide sequence: MKWQLLER, peptide start residue: 923) | 0.272
UniProt Q9QZ88 (peptide sequence: TLAGDVHIVR, peptide start residue: 51) | 0.0185
UniProt Q9R1P1 (peptide sequence: LNLYELK, peptide start residue: 71) | -0.143
UniProt Q9QXT5 (peptide sequence: LQLVLAPLHSLASR, peptide start residue: 216) | -0.176
UniProt Q9WUU9 (peptide sequence: TSTSPQNSGTGK, peptide start residue: 1914) | -0.387
UniProt Q9QYC0 (peptide sequence: GSEENLDETR, peptide start residue: 585) | 0.0966
UniProt Q9R0M4 (peptide sequence: RIIIETK, peptide start residue: 357) | -0.268
UniProt Q9WUB0 (peptide sequence: AVAGGDEQAAIK, peptide start residue: 18) | -0.299
UniProt Q9R008 (peptide sequence: WAFEGER, peptide start residue: 188) | -0.142

Target | log2 fold change
UniProt Q9QYJ0 (peptide sequence: EYHPDKNPNAGDKFK, peptide start residue: 34) | 0.176
UniProt Q9QZ06 (peptide sequence: LSITVVQAK, peptide start residue: 55) | -0.354
UniProt Q9R059 (peptide sequence: TLTQGGVTYR, peptide start residue: 168) | -0.115
UniProt Q9QZ08 (peptide sequence: HSSALGGASLGAR, peptide start residue: 309) | 0.705
UniProt Q9R062 (peptide sequence: TKPWNYTYNPQTK, peptide start residue: 217) | -0.0743
UniProt Q9R087 (peptide sequence: VTAGTSNEEECWNGHSK, peptide start residue: 412) | -0.14
UniProt Q9WUB4 (peptide sequence: MGDNNVIESK, peptide start residue: 101) | -0.401
UniProt Q9WTI7 (peptide sequence: KWAAQTIR, peptide start residue: 781) | 0.44
UniProt Q9QY01 (peptide sequence: SLMPSIPR, peptide start residue: 231) | -0.615
UniProt Q9QZN1 (peptide sequence: GAGVPACTPCKQPR, peptide start residue: 202) | 0.262
UniProt Q9R0M8 (peptide sequence: GDLTTEPFLPK, peptide start residue: 375) | -0.0662
UniProt Q9WV98 (peptide sequence: EFLGTYNK, peptide start residue: 16) | -0.381
UniProt Q9QXE2 (peptide sequence: VMEILESGHLR, peptide start residue: 311) | 0.394
UniProt Q9QYT7 (peptide sequence: AQNPMQLMRK, peptide start residue: 266) | 0.126
UniProt Q9R1V7 (peptide sequence: RFDPTQQGPI, peptide start residue: 820) | 0.0674
UniProt Q9WUR2 (peptide sequence: KNAISFQMYR, peptide start residue: 159) | 0.224
UniProt Q9QXZ6 (peptide sequence: MEETEKK, peptide start residue: 1) | -0.161
UniProt Q9WU78 (peptide sequence: TMQGSEVVSVLK, peptide start residue: 542) | -0.185
UniProt Q9QZ73 (peptide sequence: QFMIFTQSSEK, peptide start residue: 14) | 0.0437
UniProt Q9WU42 (peptide sequence: EGTPPPPPPPR, peptide start residue: 1348) | -0.627
